Measurements as given in EP1310247A1 (priority 1997, dated 1999).

Protein sequences, listed by entry. Tags and fused reporters are not part of them.
UniProt P54833, whole entry: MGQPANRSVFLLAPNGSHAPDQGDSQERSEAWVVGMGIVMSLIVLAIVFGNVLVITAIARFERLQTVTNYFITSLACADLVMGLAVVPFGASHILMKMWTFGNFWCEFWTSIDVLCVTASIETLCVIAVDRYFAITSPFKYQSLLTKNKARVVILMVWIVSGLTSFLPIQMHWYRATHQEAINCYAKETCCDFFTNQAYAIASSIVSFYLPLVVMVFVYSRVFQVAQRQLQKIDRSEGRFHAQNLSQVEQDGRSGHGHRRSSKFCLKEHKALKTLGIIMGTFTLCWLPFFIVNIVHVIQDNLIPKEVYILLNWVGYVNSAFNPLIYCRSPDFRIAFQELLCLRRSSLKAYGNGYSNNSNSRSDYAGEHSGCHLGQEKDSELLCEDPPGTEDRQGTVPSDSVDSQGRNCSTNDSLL

Target: T1, β2-Receptor (Canis lupus familiaris, UniProt P54833)
T1 construct: Canine lung membranes (10 µg protein/100 µl) were incubated with ^125ICYP; from tissue; host or cells: dog lung membranes
Assay: Beta-2 binding, 125iodocyanopindolol (ICYP), canine lung membranes
Design: species or system mongrel dogs
Conditions: check for β1 binding with β1-selective antagonist

CC(C)NCC(O)COc1ccc(CC(N)=O)cc1 (stereo not shown) [Atenolol, atenolol]
displacement of ICYP from pulmonary membranes: largely ineffective in displacing ICYP
